# Experimental data: the supplement of paper PMC7024190
# Some of the results follow. Repeats in this data set agree poorly, so a single value says little.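 Human embryonic kidney cells were transiently transfected with a plasmid bearing a Renilla luciferase gene under the HSV-TK promoter. This first-round screen tests roughly ten thousand compounds for ones that increase reporter output.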
# Tested on: HEK 293FT
# Assay: log relative Renilla luciferase luminescence (reporter expression vs reference, reference not stated) (log (base not stated)); higher = higher recombinant reporter expression
# Conditions: 10 µM; time after transfection 48 h
row,Compound,log
1,O=C(N/N=C/c1ccc2c(c1)OCO2)c1ccncc1 [Piperazide],-0.0538
2,COc1ccc2nc(NC(=O)Nc3ccccc3)sc2c1 [Frentizole],0.0913
3,C[C@]12C=CC(=O)C=C1CC[C@H]1[C@@H]3C[C@@H](O)[C@](O)(C(=O)CO)[C@@]3(C)C[C@H](O)[C@@]12F [Triamcinolone],0.121
4,Cc1c(Cn2ccnc2)c2ccccc2n1CCC(=O)O [Dazmegrel],-0.138
